Consider three molecules from PMC10993510.

What all share (assay): SEC; Superose 6 Increase 10/300 column, last step of the purification; elution in 150 mM NaCl, 25 mM Hepes pH 7.5, 1 mM DTT; both purified
For orientation: SEC sorts molecules by how far they enter the pores of the column.

In experiment [1] the target is Faa1-WT-EGFP (S. cerevisiae) (UniProt P30624).
Experiment [2] addresses Faa1-4D-EGFP (S. cerevisiae) (UniProt P30624).
Experiment [3] addresses Faa1-6D-EGFP (S. cerevisiae) (UniProt P30624).

No constants are given. Whether binding was seen depends on the method and setting. Where a sequence is shown, tags or fusion partners need not be part of it.

B1: Faa1-WT-EGFP (enzyme, UniProt P30624 1-700)
chain: MVAQYTVPVGKAANEHETAPRRNYQCREKPLVRPPNTKCSTVYEFVLECFQKNKNSNAMGWRDVKEIHEESKSVMKKVDGKETSVEKKWMYYELSHYHYNSFDQLTDIMHEIGRGLVKIGLKPNDDDKLHLYAATSHKWMKMFLGAQSQGIPVVTAYDTLGEKGLIHSLVQTGSKAIFTDNSLLPSLIKPVQAAQDVKYIIHFDSISSEDRRQSGKIYQSAHDAINRIKEVRPDIKTFSFDDILKLGKESCNEIDVHPPGKDDLCCIMYTSGSTGEPKGVVLKHSNVVAGVGGASLNVLKFVGNTDRVICFLPLAHIFELVFELLSFYWGACIGYATVKTLTSSSVRNCQGDLQEFKPTIMVGVAAVWETVRKGILNQIDNLPFLTKKIFWTAYNTKLNMQRLHIPGGGALGNLVFKKIRTATGGQLRYLLNGGSPISRDAQEFITNLICPMLIGYGLTETCASTTILDPANFELGVAGDLTGCVTVKLVDVEELGYFAKNNQGEVWITGANVTPEYYKNEEETSQALTSDGWFKTGDIGEWEANGHLKIIDRKKNLVKTMNGEYIALEKLESVYRSNEYVANICVYADQSKTKPVGIIVPNHAPLTKLAKKLGIMEQKDSSINIENYLEDAKLIKAVYSDLLKTGKDQGLVGIELLAGIVFFDGEWTPQNGFVTSAQKLKRKDILNAVKDKVDAVYSSS
For B1, the binding entry in experiment [1] is on record as “no binding”.

B2: Faa1-4D-EGFP (enzyme, UniProt P30624 1-700)
chain: MVAQYTVPVGKAANEHETAPRRNYQCREKPLVRPPNTKCSTVYEFVLECFQKNKNSNAMGWRDVKEIHEESKSVMKKVDGKETSVEKKWMYYELSHYHYNSFDQLTDIMHEIGRGLVKIGLKPNDDDKLHLYAATSHKWMKMFLGAQSQGIPVVTAYDTLGEKGLIHSLVQTGSKAIFTDNSLLPSLIKPVQAAQDVKYIIHFDSISSEDRRQSGKIYQSAHDAINRIKEVRPDIKTFSFDDILKLGKESCNEIDVHPPGKDDLCCIMYTSGSTGEPKGVVLKHSNVVAGVGGASLNVLKFVGNTDRVICFLPLAHIFELVFELLSFYWGACIGYATVKTLTSSSVRNCQGDLQEFKPTIMVGVAAVWETVRKGILNQIDNLPFLTDDIFWTAYNTKLNMQRLHIPGGGALGNLVFKKIRTATGGQLRYLLNGGSPISRDAQEFITNLICPMLIGYGLTETCASTTILDPANFELGVAGDLTGCVTVKLVDVEELGYFAKNNQGEVWITGANVTPEYYKNEEETSQALTSDGWFKTGDIGEWEANGHLKIIDRKKNLVKTMNGEYIALEKLESVYRSNEYVANICVYADQSKTKPVGIIVPNHAPLTKLAKKLGIMEQKDSSINIENYLEDAKLIDAVYSDLLKTGDDQGLVGIELLAGIVFFDGEWTPQNGFVTSAQKLKRKDILNAVKDKVDAVYSSS
B2: the binding entry in experiment [2] is listed as “no binding”.

B3: Faa1-6D-EGFP (enzyme, UniProt P30624 1-700)
chain: MVAQYTVPVGKAANEHETAPRRNYQCREKPLVRPPNTKCSTVYEFVLECFQKNKNSNAMGWRDVKEIHEESKSVMKKVDGKETSVEKKWMYYELSHYHYNSFDQLTDIMHEIGRGLVKIGLKPNDDDKLHLYAATSHKWMKMFLGAQSQGIPVVTAYDTLGEKGLIHSLVQTGSKAIFTDNSLLPSLIKPVQAAQDVKYIIHFDSISSEDRRQSGKIYQSAHDAINRIKEVRPDIKTFSFDDILKLGKESCNEIDVHPPGKDDLCCIMYTSGSTGEPKGVVLKHSNVVAGVGGASLNVLKFVGNTDRVICFLPLAHIFELVFELLSFYWGACIGYATVKTLTSSSVRNCQGDLQEFKPTIMVGVAAVWETVRKGILNQIDNLPFLTDDIFWTAYNTKLNMQRLHIPGGGALGNLVFKKIRTATGGQLRYLLNGGSPISRDAQEFITNLICPMLIGYGLTETCASTTILDPANFELGVAGDLTGCVTVKLVDVEELGYFAKNNQGEVWITGANVTPEYYKNEEETSQALTSDGWFKTGDIGEWEANGHLKIIDRKKNLVKTMNGEYIALEKLESVYRSNEYVANICVYADQSKTKPVGIIVPNHAPLTKLAKDLGIMEQDDSSINIENYLEDAKLIDAVYSDLLKTGDDQGLVGIELLAGIVFFDGEWTPQNGFVTSAQKLKRKDILNAVKDKVDAVYSSS
Regarding B3, the binding entry in experiment [3] is on record as “no binding”.
